These are yes or no findings as the source states them, for the method shown. Some entries that bind do so weakly or less than the wild type.
Tests used:
BMP10 = molecular target: T1, BMP10 (UniProt O95393); experiment: similar binding assay (SPR, Biacore)
T1 sequence (looked up): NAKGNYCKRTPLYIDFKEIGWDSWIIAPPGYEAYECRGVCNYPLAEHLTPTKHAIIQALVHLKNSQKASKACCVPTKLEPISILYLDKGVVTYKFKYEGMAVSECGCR

By UniProt entry, the sequences of proteins in these tests, tags left out. Where a name states a change or a piece, a line headed by the entry shows the natural chain unless it says otherwise.
UniProt P27037: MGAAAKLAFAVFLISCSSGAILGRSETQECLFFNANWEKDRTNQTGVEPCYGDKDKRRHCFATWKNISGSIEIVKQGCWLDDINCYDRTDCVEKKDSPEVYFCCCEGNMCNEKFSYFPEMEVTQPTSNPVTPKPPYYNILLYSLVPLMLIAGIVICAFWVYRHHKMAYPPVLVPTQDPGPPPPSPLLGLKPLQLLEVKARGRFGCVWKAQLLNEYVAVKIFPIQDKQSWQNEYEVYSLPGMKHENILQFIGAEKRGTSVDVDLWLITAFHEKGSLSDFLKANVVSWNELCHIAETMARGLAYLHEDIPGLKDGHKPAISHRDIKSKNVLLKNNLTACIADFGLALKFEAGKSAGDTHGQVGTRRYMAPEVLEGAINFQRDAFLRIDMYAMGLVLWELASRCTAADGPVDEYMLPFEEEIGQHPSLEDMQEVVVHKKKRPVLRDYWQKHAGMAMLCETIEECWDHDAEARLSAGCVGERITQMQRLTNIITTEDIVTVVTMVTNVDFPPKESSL

activin B = molecular target: T2, activin B (UniProt P09529); experiment: similar binding assay (SPR, Biacore)
T2 sequence (looked up): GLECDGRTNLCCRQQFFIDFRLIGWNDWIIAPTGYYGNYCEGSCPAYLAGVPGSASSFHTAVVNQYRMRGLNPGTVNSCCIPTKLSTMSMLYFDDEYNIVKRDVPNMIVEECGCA

GDF11 = molecular target: T3, GDF11 (UniProt O95390); experiment: SPR (Biacore), GDF11 amine-coupled on CM5 chip
T3 sequence (looked up): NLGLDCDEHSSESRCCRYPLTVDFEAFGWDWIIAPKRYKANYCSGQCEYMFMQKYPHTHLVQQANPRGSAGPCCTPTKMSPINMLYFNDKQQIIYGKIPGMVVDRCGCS

Measured: binding

ActRIIA-mFc (from UniProt P27037 20-135) (Fc fusion)
binds: BMP10 | activin B | GDF11

Source: patent US20260055163A1
